Our source for the binding values is patent US20240352121A1, “LAIR-1 AGONISTIC ANTIBODIES AND METHODS OF USE THEREOF” (NEXTCURE, INC., priority 2023, published 2024).

Chains of the proteins cited; added tags and fusions are not shown. Lines headed by an entry give the natural chain unless they say otherwise; changes in a name come on top. A line that says so, or that is headed by a name, gives the form on record, which may keep a tag or linker.
human LAIR-1 fused to the zeta chain of CD3, on UT-140 reporter cells (P20963, form named): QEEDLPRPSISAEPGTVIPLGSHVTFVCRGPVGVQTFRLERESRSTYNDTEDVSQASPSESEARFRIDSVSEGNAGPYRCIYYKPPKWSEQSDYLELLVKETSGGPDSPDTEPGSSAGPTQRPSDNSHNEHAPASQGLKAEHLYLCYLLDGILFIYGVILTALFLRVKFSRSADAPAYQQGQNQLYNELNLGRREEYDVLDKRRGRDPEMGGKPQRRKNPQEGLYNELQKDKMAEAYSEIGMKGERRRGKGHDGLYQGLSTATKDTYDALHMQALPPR

In the assay the target is human LAIR-1 fused to the zeta chain of CD3, on UT-140 reporter cells (human) (UniProt P20963). The experiment in a line: binding on UT140 reporter cells (FIG. 24B).

These are yes or no findings as the source states them, for the method shown. Some results given as binding are weak or reduced against the parent protein; the word gives no strength.

B1: h11B3 LAIR-1 mAb, Anti-LAIR-1 Variant 6 (h11B3 VL-2 / h11B3 VH-3) (antibody, V domains shown)
VH: EVQLVESGGGLVQPGGSLKLSCAASGFTFNTNAMYWVRQAPGKGLEWVGRIRSKSSNYATYYAASVKGRFTISRDDSKNTLYLQMNSLKTEDTAVYYCVRGGSGFFAYWGQGTLVTVSS
VL: DIQMTQSPSSLSASLGDRVTITCKASEDIYIRLAWYQQKPGKAPRLLISTATSLETGVPSRFSGSGSGTDYTFTISSLQPEDIATYYCQQYWSTPYTFGGGTRLEIK
For B1, the binding entry is “binds”.
